The results in this text go back to patent US20240366779A1 (priority 2021, published 2024).

This series is described as follows: general procedure: Fmoc solid-phase peptide synthesis; 2-chloro-trityl chloride or rink acid resin; cellulose paper discs for library; L-phenylalanine-2-chlorotrityl ester pol; HATU/DIPEA. The settings on record: conjugation step.

In the case of mp-Ala-Ser-Glu-PAB-Auristatin E, the conjugation yield amounted to 42.5% yield.
